Source: patent US11945862B2, “Compositions and methods for antibody production” (ImmunoGen, Inc., priority 2017, dated 2024)
Some entries repeat one wording, which the source may state once for all of them.

Tested on: humanized N901 IgG1
Assay: Covalent modification of antibody after agent treatment (mass spectrometry of deglycosylated antibody)
[1] = 1 mM agent and 0.35 ml CHO cell lysate, 3 hours, mass spectrometry

| SMILES | covalent modification of antibody [1] | covalent modification of antibody (antibody incubated with coenzyme Q0, mass spectrometry) |
| --- | --- | --- |
| O=C1c2ccccc2C(=O)c2cc(S(=O)(=O)O)ccc21 [AQS, anthraquinone-2-sulfonic acid] | did not covalently modify the antibody |  |
| COC1=C(OC)C(=O)C(C)=CC1=O [coenzyme Q0, 2,3-dimethoxy-5-methyl-p-benzoquinone] |  | not covalently modified |
| O=C(O)CCCCC1CCSS1 (racemic) [lipoic acid, 1,2-dithiolane-3-pentanoic acid] | did not covalently modify the antibody |  |
| COC(=O)[C@@H](N)CSSC[C@H](N)C(=O)OC [CDME, L-cystine dimethyl ester] | did not covalently modify the antibody |  |
